Measured values: article PMC7463931, “Structure-Antifouling Activity Relationship and Molecular Targets of Bio-Inspired(thio)xanthones” (Biomolecules, 2020)

System: Mytilus galloprovincialis plantigrade larvae
Assay: Toxicity (mortality, LC50) to mussel plantigrade larvae in the anti-settlement bioassay
Format: in vivo
Procedure: The 19 xanthone derivatives were screened for anti-settlement activity toward M. galloprovincialis plantigrade larvae. Samples of M. galloprovincialis juveniles were collected from mussel beds during low tides in the intertidal zone of Memória beach, Matosinhos, Portugal (41°13′59″ N; 8°43′28″ W). Mussel plantigrade larvae (0.5–2 mm) were sorted in a binocular magnifier (Olympus SZX2-ILLT, Tokyo, Japan) and kept in filtered seawater until bioassays preparation. […] Five competent larvae were included per well and four well replicates per condition. Stock solutions (50 mM) in DMSO were used to prepare test media in filtered seawater (0.1%). Negative and positive controls were used, namely DMSO (0.1%) and CuSO4 (5 μM) as an efficient antifouling agent. After exposure, the anti-settlement bioactivity was determined by the observation of efficiently attached plantigrade larvae considering the existence/absence of produced byssal threads for each test condition. Compounds producing more than 50% of settlement inhibition at 50 µM were selected for antifouling effectiveness (EC50) and toxicity (LC50 and therapeutic index) bioassays, according to previously validated experimental conditions.
Therapeutic ratios (LC50/EC50) were used to evaluate the effectiveness versus toxicity of bioactive compounds. For the differential proteome analysis, non-parametric Kruskall-Wallis (KW) and Mann Whitney (MW) tests were utilized to report protein abundance differences between treatments in MultiExperiment Viewer (MeV) version 4.9 (The Institute for Genomic Research (TIGR), La Jolla, CA, USA) at a confidence level of 95% [34]. The hierarchical clustering of proteins was made using Pearson correlation and average linkage method.

| Compound | LC50/EC50 (therapeutic ratio) |
| --- | --- |
| O=c1c2ccccc2oc2c(O)cccc12 [Compound 4, 4-hydroxy-] | >23.28 |
| O=c1c2ccccc2oc2ccc(O)c(O)c12 [Compound 5, 1,2-dihydroxy-] | >32.34 |
| CCCOc1ccc(NCCc2ccc3c(c2)OCO3)c2c(=O)c3ccccc3sc12 [Compound 15, 1-[11]-4-propoxy-9H-thioxanthen-9-one] | >17.48 |
